Taken from: PubChem BioAssay AID686943 (Drosophila RNAi Screening Center, 2013)
The deposit covers about 23,000 reagents; shown is an unselected part of those with a known target gene and a result. 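Extra replicates exist only for a retested subset of genes; insulin dose and duration not given; both raised and lowered dpERK matter.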 The numbers tell different reagents against one gene apart. Not given: the amount of reagent, the time to read-out.

- Test: 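Search across the genome for regulators of signalling from receptor tyrosine kinase to ERK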 (primary screen)
- Cell system: Drosophila S2R+ haemocyte-like cells expressing YFP-tagged ERK (Rolled)
- Reagent: long dsRNA against Drosophila genes
- Treatment: insulin stimulation versus unstimulated cells; dose and duration not given
- Measured: 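Antibody staining for doubly phosphorylated ERK divided by ERK-YFP signal, as plate z-scores, in insulin-treated and untreated cells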
- Scale: replicate 1, z-score of dpERK with insulin and replicate 2, z-score of dpERK with insulin: higher = more active ERK per ERK-YFP after insulin; replicate 1, z-score of dpERK under basal conditions: higher = more basal active ERK per ERK-YFP; replicate 1, z-score of ERK-YFP with insulin: higher = more YFP-tagged ERK signal

Gene	dsRNA no.	replicate 1, z-score of dpERK with insulin	replicate 2, z-score of dpERK with insulin	replicate 1, z-score of dpERK under basal conditions	replicate 1, z-score of ERK-YFP with insulin
CG17819	1	-1.06	-0.34	-0.84	0.46
sev (sevenless)	1	0.28	0.06	0.06	-0.02
CG12299	1	-0.18	0.36	0.4	-2.4
RpS14b (Ribosomal protein S14b)	1	2.05	-1.53	1.25	-4.24
CG13054	1	-1.16	-0.22	-0.62	1.08
CG4382	1	1.02	-0.26	-0.41	-1.03
Clbn (Caliban)	1	0.59	-0.01	0.9	0.03
FASN3 (Fatty acid synthase 3)	1	-0.31	0.37	-1.25	0.34
CG40948 (retired record)	1	-1.43	-0.7	4.16	-0.02
CG10208	1	-0.37	0	0.88	1.34
Etl1	1	0.1	-0.53	-0.6	0.11
Gagr (Gag-related)	1	0.5	-0.27	0.32	-0.07
CG7365	1	-0.42	-0.43	0.27	0.2
Atf6	1	0.59	0.2	0.6	0.08
Atf6	2	0.8	-0.14	0.45	0.43
Frq2 (Frequenin 2)	1	-0.08	-0.21	-0.15	0.04
CG7369	1	-0.51	0.87	0.16	0.77
CG14855	1	0.25	-0.17	-0.81	-0.47
Eato (Engulfment ABC Transporter in the ovary)	1	-0.42	0.23	2.28	1.26
Eato (Engulfment ABC Transporter in the ovary)	2	-0.05	-0.47	-0.6	0.61
Taf9 (TBP-associated factor 9)	1	2.14	1.54	-2.8	0.23
Spn85F (Serpin 85F)	1	-0.08	0.37	-0.3	0
CG6834	1	0.27	0.77	0.86	-0.06
CG13590	1	0.76	1.17	-0.75	-0.42
CG33469	1	-0.12	0.37	-0.61	-0.02
CG3280 (retired record)	1	-0.04	-0.1	-0.04	0.12

An excerpt from above, showing only “replicate 1, z-score of ERK-YFP with insulin”.
Spn85F (Serpin 85F)	0
CG6834	-0.06
CG13590	-0.42
CG33469	-0.02

More reagents:
Gene	dsRNA no.	replicate 1, z-score of dpERK with insulin	replicate 2, z-score of dpERK with insulin	replicate 1, z-score of dpERK under basal conditions	replicate 1, z-score of ERK-YFP with insulin
CG13566	1	-0.38	-1.74	-1.53	-0.19
CG1105	1	0.23	-0.12	-0.22	2.13
ND2 (retired record)	1	0.6	-0.02	0.3	-0.32
CG17105	1	0.61	1	-0.2	1.47
PlexB (Plexin B)	1	-0.22	-0.96	0.84	0.42
slgA (sluggish A)	1	-0.18	0.19	0.03	-0.1
DMAP1 (DNA methyltransferase 1 associated protein 1)	1	-1.82	-1.88	-0.65	4.01
CG32599	1	1.13	0.7	-0.74	-0.07
CG43071	1	0.59	0.31	-2.01	-0.64
Usp20-33 (Ubiquitin specific protease 20/33)	1	0.06	-0.63	-0.33	0.3
CG14491	1	0.4	0.34	0.84	0.72
flfl (falafel)	1	-1.64	-2.5	-0.92	-2.23
BobA	1	0.17	-0.2	-0.08	0.15
